Experimental data from PMC7819943, “Rice protein-binding microarrays: a tool to detect cis-acting elements near promoter regions in rice”.
The list shows a part of the results.

Target: T1, OsSMF1 (Oryza sativa, UniProt Q6ZLB0 1-436)
T1 sequence: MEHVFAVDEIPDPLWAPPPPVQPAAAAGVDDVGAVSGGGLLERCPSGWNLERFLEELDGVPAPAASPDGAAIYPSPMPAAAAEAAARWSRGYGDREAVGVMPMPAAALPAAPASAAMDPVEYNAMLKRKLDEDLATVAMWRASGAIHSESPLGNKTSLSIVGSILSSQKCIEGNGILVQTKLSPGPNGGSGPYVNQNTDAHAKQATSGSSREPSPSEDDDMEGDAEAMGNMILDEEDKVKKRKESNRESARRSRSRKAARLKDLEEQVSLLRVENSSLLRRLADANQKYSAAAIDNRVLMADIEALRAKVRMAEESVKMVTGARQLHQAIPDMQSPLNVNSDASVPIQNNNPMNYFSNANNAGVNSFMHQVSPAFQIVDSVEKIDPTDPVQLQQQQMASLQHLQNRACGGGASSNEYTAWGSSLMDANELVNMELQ
Experiment: protein-binding microarray (RPBM); PBS, 2% BSA, 51.3 ng/ul salmon testes DNA, 50 uM zinc acetate, 200 nM TF, 25 C, 1 h; high values mean tight binding
Details: protein: recombinant; tags: N-terminal polyhistidine and DsRed monomer fusion (pET32a); chain copies: 2; label: CyDye5-dUTP incorporated in the synthesized complementary strand; 3' TTTTT single-stranded linker to array surface; dsDNA, one strand shown
How it was run: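 The binding signal is fluorescence intensity per array feature (arbitrary units). Readings came from an Axon 4000B scanner after a washed, 2% BSA-blocked, double-stranded custom Agilent array had been incubated for 1 h at 25 °C with 200 nM protein and 50 µM zinc acetate. The protein was a Ni–NTA-purified transcription factor fused N-terminally to polyhistidine and DsRed, expressed in E. coli BL21-CodonPlus.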

Going from “TTGACCGGTGAGGTGACACCTAATCACCGGTAGTAGTACTCGGAGTCACCTAGTGCAG” to “CCCCGCCGTCTCCTCCGCCGCCGCCATGTGGGCGCTCCGCCGGAGTCACCTAGTGCAG”, the binding signal rises from 3310 fluorescence intensity (a.u.) to 3870 fluorescence intensity (a.u.).

Compared with “TGGAAAACCACGATAGGCTCACAATACGACATACTATTGACGGAGTCACCTAGTGCAG”, “TTGGCACCATCGTCAAGAACCGCCGCCGCCGCTTCCGCTGCGGAGTCACCTAGTGCAG” is higher in binding signal: 3870 fluorescence intensity (a.u.) for the first, 20300 fluorescence intensity (a.u.) for the second.

First: ACAGCCTACCTAGGGCAACGCCGCCACCGACACAGTCACACGGAGTCACCTAGTGCAG
Second: GTCGATCTCGGCCATCATGCGCTGGACCTCGTCGGCGGATCGGAGTCACCTAGTGCAG
The binding signal of the first is higher: 5080 fluorescence intensity (a.u.) for the first, 3380 fluorescence intensity (a.u.) for the second.

First: TCCATCTCCAAGTCCGGTGACTCAGTAATCACTTCGCACACGGAGTCACCTAGTGCAG
Second: GTACGTCTTAGAATGAACTTATTCCCCGTGTGGTACGACGCGGAGTCACCTAGTGCAG
The binding signal of the first is lower: 5560 fluorescence intensity (a.u.) for the first, 9040 fluorescence intensity (a.u.) for the second.

Compared with “GATCGATGAATCTCATGTACTGACGCACGTGATCCAATTTCGGAGTCACCTAGTGCAG”, “GTCGAGGAGCTGCAGGAGAGGGAGTCGCGCCTCCGGACCGCGGAGTCACCTAGTGCAG” is higher in binding signal: 4490 fluorescence intensity (a.u.) for the first, 25200 fluorescence intensity (a.u.) for the second.

Going from “CTGCGCAGTGTGATCGATTAATCCCAATTCTCAAGCACGCCGGAGTCACCTAGTGCAG” to “AGCGCAGCAAGGCGGCAGCCGATCCGACCAACTCACCACCCGGAGTCACCTAGTGCAG”, the binding signal falls from 5170 fluorescence intensity (a.u.) to 3230 fluorescence intensity (a.u.).

First: GCGGCTGGATTGTCGAGCGGTGAGGGTGACACGCATCTCCCGGAGTCACCTAGTGCAG
Second: CTAAACTTGTAGGTGTGTCACCTAGATTCATGAACTCTCACGGAGTCACCTAGTGCAG
The binding signal of the first is lower: 3190 fluorescence intensity (a.u.) for the first, 3570 fluorescence intensity (a.u.) for the second.

Going from “CCTTTGTTATGATTATTACTAGTACGCGTCATGACAGAAGCGGAGTCACCTAGTGCAG” to “CAGTATCTTGGGATGGCAATTATTGGAACACAGTCATTTACGGAGTCACCTAGTGCAG”, the binding signal rises from 5980 fluorescence intensity (a.u.) to 22300 fluorescence intensity (a.u.).

Going from “ACTTTGCACAAGCGGGTACAAGCTCTGACGCACCTCCGAGCGGAGTCACCTAGTGCAG” to “AAACTCATCCACCGTGGACTGACGTGTGCACGATTAATCCCGGAGTCACCTAGTGCAG”, the binding signal rises from 3820 fluorescence intensity (a.u.) to 5710 fluorescence intensity (a.u.).

First: CATTCTGGTTGTACCCTCATAATTTATTGGGGTGACGTGTCGGAGTCACCTAGTGCAG
Second: ACGAGGATGACTGGCTGACTGGTACTTTGCATCGGATCATCGGAGTCACCTAGTGCAG
The binding signal of the first is higher: 17700 fluorescence intensity (a.u.) for the first, 3910 fluorescence intensity (a.u.) for the second.

Going from “TTATTGTGCCACGTTATCTAGAACCGTCTTCAATATTGTCCGGAGTCACCTAGTGCAG” to “AAATCCTTGGTGTAATGATGCTGAATCCAATCATTCGCTTCGGAGTCACCTAGTGCAG”, the binding signal falls from 10100 fluorescence intensity (a.u.) to 7000 fluorescence intensity (a.u.).

Going from “GAGATTGGGGTTTTGATGACGGGGAATTGATCTCGATCGTCGGAGTCACCTAGTGCAG” to “CCGGCCGTGCGCCGGGATCGCCATGAGGGACGTCCGGCTGCGGAGTCACCTAGTGCAG”, the binding signal rises from 6380 fluorescence intensity (a.u.) to 26300 fluorescence intensity (a.u.).

Going from “ACGAATGGCGGCGGCTACGTGTCGGCGGTCGGGGACCCCGCGGAGTCACCTAGTGCAG” to “TAGGAGTTGATGATGACTAATCTGACCATAATAAAGACTGCGGAGTCACCTAGTGCAG”, the binding signal rises from 3460 fluorescence intensity (a.u.) to 5150 fluorescence intensity (a.u.).

Going from “ATACAAAGCAATATGATGCATCTATATATTGTTCATACATCGGAGTCACCTAGTGCAG” to “CTTAATAGTCTCTGACAAAGCAATAAAATCAAGGTGATGTCGGAGTCACCTAGTGCAG”, the binding signal rises from 3810 fluorescence intensity (a.u.) to 4090 fluorescence intensity (a.u.).

First: ATAAATAGAATGCTGACTGGACTGCCACGCGTACGCCATGCGGAGTCACCTAGTGCAG
Second: TTATTTATAACTGATCTAATAGCCAATTCACACAATAATTCGGAGTCACCTAGTGCAG
The binding signal of the first is higher: 22000 fluorescence intensity (a.u.) for the first, 13700 fluorescence intensity (a.u.) for the second.

Compared with “TACCGTCGTGCTCCATCAATTCCATCTCCACGTGTTATTGCGGAGTCACCTAGTGCAG”, “TTATAAGGCTGATGGAAACACATCCTATCTCCTTAGTCAGCGGAGTCACCTAGTGCAG” is lower in binding signal: 4780 fluorescence intensity (a.u.) for the first, 4180 fluorescence intensity (a.u.) for the second.

Compared with “AAATGCATATGTGTATGACAGGTGTGACCATATATTAATTCGGAGTCACCTAGTGCAG”, “TTGTTGGTGTTGCTGGCGCGGGACGTGTTCTGGCCCATCTCGGAGTCACCTAGTGCAG” is higher in binding signal: 3430 fluorescence intensity (a.u.) for the first, 3540 fluorescence intensity (a.u.) for the second.

Going from “TGTTGTACAGTATATTGTAATCTTGCCAAGTTGTAACGATCGGAGTCACCTAGTGCAG” to “TCGTTGAGAAATCAATAATCCACGCGCCATTTCATTGGTACGGAGTCACCTAGTGCAG”, the binding signal falls from 3570 fluorescence intensity (a.u.) to 3310 fluorescence intensity (a.u.).

Compared with “TAGAAGAGAGAGAATGACACGTGGGCTCCACATTCTTAATCGGAGTCACCTAGTGCAG”, “GCTAGGATGGTTTGGGATTGTGTGGGTTATGTTGTCTTTGCGGAGTCACCTAGTGCAG” is lower in binding signal: 13800 fluorescence intensity (a.u.) for the first, 3860 fluorescence intensity (a.u.) for the second.

Going from “ACCACCACCTTGATGTCCCTCTAAATGAGGAAACCCTCGCCGGAGTCACCTAGTGCAG” to “GCTGCCGGCTGTCCTCGTCACGCGATCCCGACCGGCGCTTCGGAGTCACCTAGTGCAG”, the binding signal falls from 17000 fluorescence intensity (a.u.) to 5070 fluorescence intensity (a.u.).

Compared with “TATAATCGTGTGTTTCGTTTTCCGTGTCAGGAGGCAAGGTCGGAGTCACCTAGTGCAG”, “CGTTTCTACCTCGGCCCAATCGGAGCCCGACACGTATGTCCGGAGTCACCTAGTGCAG” is higher in binding signal: 3950 fluorescence intensity (a.u.) for the first, 6820 fluorescence intensity (a.u.) for the second.
